Some results were stated once for a whole list of compounds, not compound by compound.
What follows are compounds tested against BaF3-FL KIT D816V cells (Homo sapiens, UniProt P10721, D816V, cells depend on it, form not given) (assay: Cell-based assay of c-Kit mutant kinase activity, BaF3-FL KIT D816V cell proliferation (ATPlite)). Settings: in at least one of the c-kit cell assays described in Example 28 (BaF3-FL KIT D816V or BaF3-FL KIT V560G/D816V); read-out: IC50 (the source's name).

Amino acid sequences for entries named in this document (tags omitted).
UniProt P10721, whole entry D816V: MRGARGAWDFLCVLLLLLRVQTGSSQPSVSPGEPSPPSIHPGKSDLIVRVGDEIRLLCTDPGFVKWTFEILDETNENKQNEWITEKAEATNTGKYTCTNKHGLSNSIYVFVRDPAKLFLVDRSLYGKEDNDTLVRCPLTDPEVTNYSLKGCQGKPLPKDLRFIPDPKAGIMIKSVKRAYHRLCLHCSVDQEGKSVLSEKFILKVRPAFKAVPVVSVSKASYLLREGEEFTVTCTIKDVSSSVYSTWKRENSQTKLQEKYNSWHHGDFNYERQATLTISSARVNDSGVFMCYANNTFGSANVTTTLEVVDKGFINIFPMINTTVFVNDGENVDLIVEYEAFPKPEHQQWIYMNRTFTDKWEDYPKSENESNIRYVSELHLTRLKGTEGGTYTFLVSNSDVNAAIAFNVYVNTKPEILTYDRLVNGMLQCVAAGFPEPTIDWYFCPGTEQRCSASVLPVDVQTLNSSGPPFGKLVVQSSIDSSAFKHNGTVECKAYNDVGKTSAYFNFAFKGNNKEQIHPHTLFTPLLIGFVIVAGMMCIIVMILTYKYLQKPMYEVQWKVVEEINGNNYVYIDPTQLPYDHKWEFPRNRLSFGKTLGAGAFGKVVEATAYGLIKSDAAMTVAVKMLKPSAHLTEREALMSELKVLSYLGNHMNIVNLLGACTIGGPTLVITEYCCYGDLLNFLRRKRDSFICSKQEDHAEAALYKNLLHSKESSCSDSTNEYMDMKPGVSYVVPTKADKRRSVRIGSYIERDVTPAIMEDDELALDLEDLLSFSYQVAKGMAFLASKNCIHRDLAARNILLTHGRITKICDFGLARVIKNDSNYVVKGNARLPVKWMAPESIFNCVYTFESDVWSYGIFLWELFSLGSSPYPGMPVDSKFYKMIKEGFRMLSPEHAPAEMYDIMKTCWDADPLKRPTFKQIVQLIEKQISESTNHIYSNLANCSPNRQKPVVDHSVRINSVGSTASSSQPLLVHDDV

| SMILES | GI50 |
| --- | --- |
| C[C@H](NC(=O)N1CCN(c2ncnc3cc(-c4ccc(F)cc4)sc23)C[C@H]1C)c1cccc(F)c1 [P-0585, (2R)-N-[(1S)-1-(3-fluorophenyl)ethyl]-4-[6-(4-fluorophenyl)thieno[3,2-d]pyrimidin-4-yl]-2-methyl-piperazine-1-carboxamide] | < 10 µM |
| Cc1nn(C)cc1-c1cc2ncnc(N3CCN(C(=O)N[C@@H](C)c4cccc(OC(F)F)c4)[C@H](C)C3)c2s1 [P-0587, (2R)-N-[(1S)-1-[3-(difluoromethoxy)phenyl]ethyl]-4-[6-(1,3-dimethylpyrazol-4-yl)thieno[3,2-d]pyrimidin-4-yl]-2-methyl-piperazine-1-carboxamide] | < 10 µM |
| Cc1ccc(S(=O)(=O)Nc2ccc(-c3ncnc4cc(C5CCNCC5)sc34)cc2)cc1 [P-0592, 4-methyl-N-[4-[6-(4-piperidyl)thieno[3,2-d]pyrimidin-4-yl]phenyl]benzenesulfonamide] | < 10 µM |
| COc1cccc([C@H](C)NC(=O)N2CCN(c3ncnc4cc(-c5ccc(F)cc5)sc34)CC2(C)C)c1 [P-0594, 4-[6-(4-fluorophenyl)thieno[3,2-d]pyrimidin-4-yl]-N-[(1S)-1-(3-methoxyphenyl)ethyl]-2,2-dimethyl-piperazine-1-carboxamide] | < 10 µM |
| CC1(C)CN(c2ncnc3cc(-c4ccc(F)cc4)sc23)CCN1 [P-0595, 4-(3,3-dimethylpiperazin-1-yl)-6-(4-fluorophenyl)thieno[3,2-d]pyrimidine] | < 10 µM |
| O=C(NCc1ccc(F)cc1)N1CCN(c2ncnc3cc(C4CCNCC4)sc23)CC1 [P-0596, N-[(4-fluorophenyl)methyl]-4-[6-(4-piperidyl)thieno[3,2-d]pyrimidin-4-yl]piperazine-1-carboxamide] | < 10 µM |
| C[C@H](NC(=O)N1CCN(c2ncnc3cc(Br)sc23)CC1)c1ccc(F)cc1 [P-0597, 4-(6-bromothieno[3,2-d]pyrimidin-4-yl)-N-[(1S)-1-(4-fluorophenyl)ethyl]piperazine-1-carboxamide] | < 10 µM |
| COc1cccc([C@H](C)NC(=O)N2CCN(c3ncnc4cc(-c5cn(C)nc5C)sc34)C[C@H]2C)c1 [P-0598, (2R)-4-[6-(1,3-dimethylpyrazol-4-yl)thieno[3,2-d]pyrimidin-4-yl]-N-[(1S)-1-(3-methoxyphenyl)ethyl]-2-methyl-piperazine-1-carboxamide] | < 10 µM |
| Cc1nn(C)cc1-c1cc2ncnc(N3CCN(C(=O)N[C@@H](C)c4ccc(F)cc4)[C@H](C)C3)c2s1 [P-0599, (2R)-4-[6-(1,3-dimethylpyrazol-4-yl)thieno[3,2-d]pyrimidin-4-yl]-N-[(1S)-1-(4-fluorophenyl)ethyl]-2-methyl-piperazine-1-carboxamide] | < 10 µM |
| COc1cccc([C@H](C)NC(=O)N2CCN(c3ncnc4cc(-c5ccc(F)cc5)sc34)C[C@H]2C)c1 [P-0600, (2R)-4-[6-(4-fluorophenyl)thieno[3,2-d]pyrimidin-4-yl]-N-[(1S)-1-(3-methoxyphenyl)ethyl]-2-methyl-piperazine-1-carboxamide] | < 10 µM |
| C[C@H](NC(=O)N1CCN(c2ncnc3cc(-c4ccc(F)cc4)sc23)C[C@H]1C)c1ccc(F)cc1 [P-0601, (2R)-N-[(1S)-1-(4-fluorophenyl)ethyl]-4-[6-(4-fluorophenyl)thieno[3,2-d]pyrimidin-4-yl]-2-methyl-piperazine-1-carboxamide] | < 10 µM |
| C[C@@H]1CN(c2ncnc3cc(-c4ccc(F)cc4)sc23)CCN1C(=O)NCc1ccc(F)cc1 [P-0602, (2R)-N-[(4-fluorophenyl)methyl]-4-[6-(4-fluorophenyl)thieno[3,2-d]pyrimidin-4-yl]-2-methyl-piperazine-1-carboxamide] | < 10 µM |
| Cc1nn(C)cc1-c1cc2ncnc(C3CCN(C(=O)NCc4ccc(F)cc4)CC3)c2s1 [P-0604, 4-[6-(1,3-dimethylpyrazol-4-yl)thieno[3,2-d]pyrimidin-4-yl]-N-[(4-fluorophenyl)methyl]piperidine-1-carboxamide] | < 10 µM |
| COc1cccc([C@@H](C)NC(=O)N2CCN(c3ncnc4cc(-c5ccc(F)cc5)sc34)C[C@H]2C)c1 [P-0605, (2R)-4-[6-(4-fluorophenyl)thieno[3,2-d]pyrimidin-4-yl]-N-[(1R)-1-(3-methoxyphenyl)ethyl]-2-methyl-piperazine-1-carboxamide] | < 10 µM |
| C[C@@H]1CN(c2ncnc3cc(-c4ccc(F)cc4)sc23)CCN1C(=O)N[C@H](C)c1ccc(F)cc1 [P-0606, (2R)-N-[(1R)-1-(4-fluorophenyl)ethyl]-4-[6-(4-fluorophenyl)thieno[3,2-d]pyrimidin-4-yl]-2-methyl-piperazine-1-carboxamide] | < 10 µM |
| Cc1nn(C)cc1-c1cc2ncnc(C3CCNCC3)c2s1 [P-0607, 6-(1,3-dimethylpyrazol-4-yl)-4-(4-piperidyl)thieno[3,2-d]pyrimidine] | < 10 µM |
| COc1cccc([C@@H](C)NC(=O)N2CCN(c3ncnc4cc(-c5cn(C)nc5C)sc34)C[C@H]2C)c1 [P-0608, (2R)-4-[6-(1,3-dimethylpyrazol-4-yl)thieno[3,2-d]pyrimidin-4-yl]-N-[(1R)-1-(3-methoxyphenyl)ethyl]-2-methyl-piperazine-1-carboxamide] | < 10 µM |
| Cc1nn(C)cc1-c1cc2ncnc(N3CCN(C(=O)N[C@H](C)c4ccc(F)cc4)[C@H](C)C3)c2s1 [P-0609, (2R)-4-[6-(1,3-dimethylpyrazol-4-yl)thieno[3,2-d]pyrimidin-4-yl]-N-[(1R)-1-(4-fluorophenyl)ethyl]-2-methyl-piperazine-1-carboxamide] | < 10 µM |

| SMILES | GI50 |
| --- | --- |
| Cc1nn(C)cc1-c1cc2ncnc(N3CCN(C(=O)NCc4ccc(F)cc4)[C@H](C)C3)c2s1 [P-0610, (2R)-4-[6-(1,3-dimethylpyrazol-4-yl)thieno[3,2-d]pyrimidin-4-yl]-N-[(4-fluorophenyl)methyl]-2-methyl-piperazine-1-carboxamide] | < 10 µM |
| Cc1ccc(S(=O)(=O)Nc2ccc(-c3ncnc4cc(C5=CCNCC5)sc34)cc2)cc1 [P-0611, 4-methyl-N-[4-[6-(1,2,3,6-tetrahydropyridin-4-yl)thieno[3,2-d]pyrimidin-4-yl]phenyl]benzenesulfonamide] | < 10 µM |
| Cc1nn(C)cc1-c1cc2ncnc(C3=CCN(C(=O)Nc4ccc(Cl)cc4)CC3)c2s1 [P-0612, N-(4-chlorophenyl)-4-[6-(1,3-dimethylpyrazol-4-yl)thieno[3,2-d]pyrimidin-4-yl]-3,6-dihydro-2H-pyridine-1-carboxamide] | < 10 µM |
| Cc1nn(C)cc1-c1cc2ncnc(C3=CCN(C(=O)NCc4ccc(F)cc4)CC3)c2s1 [P-0613, 4-[6-(1,3-dimethylpyrazol-4-yl)thieno[3,2-d]pyrimidin-4-yl]-N-[(4-fluorophenyl)methyl]-3,6-dihydro-2H-pyridine-1-carboxamide] | < 10 µM |
| O=C(NCc1ccc(F)cc1)N1CCN(c2ncnc3cc(C4=CCNCC4)sc23)CC1 [P-0615, N-[(4-fluorophenyl)methyl]-4-[6-(1,2,3,6-tetrahydropyridin-4-yl)thieno[3,2-d]pyrimidin-4-yl]piperazine-1-carboxamide] | < 10 µM |
| Cn1cc(-c2cc3ncnc(C4=CC(C)(C)NC(C)(C)C4)c3s2)cn1 [P-0617, 6-(1-methylpyrazol-4-yl)-4-(2,2,6,6-tetramethyl-1,3-dihydropyridin-4-yl)thieno[3,2-d]pyrimidine] | < 10 µM |
| Cc1nn(C)c(C)c1-c1cc2ncnc(N3CCN(C(=O)NCc4ccc(F)cc4)CC3)c2s1 [P-0618, N-[(4-fluorophenyl)methyl]-4-[6-(1,3,5-trimethylpyrazol-4-yl)thieno[3,2-d]pyrimidin-4-yl]piperazine-1-carboxamide] | < 10 µM |
| Cn1cc(-c2cc3ncnc(-c4ccc(N)nc4)c3s2)cn1 [P-0621, 5-[6-(1-methylpyrazol-4-yl)thieno[3,2-d]pyrimidin-4-yl]pyridin-2-amine] | < 10 µM |
| Cc1cc2ncnc(-c3ccc(NS(C)(=O)=O)cc3)c2s1 [P-0622, N-[4-(6-methylthieno[3,2-d]pyrimidin-4-yl)phenyl]methanesulfonamide] | < 10 µM |
| Cc1ccc(S(=O)(=O)Nc2ccc(-c3ncnc4cc(C)sc34)cc2)cc1 [P-0623, 4-methyl-N-[4-(6-methylthieno[3,2-d]pyrimidin-4-yl)phenyl]benzenesulfonamide] | < 10 µM |
| O=C(NCc1ccc(F)cc1)N1CCN(c2ncnc3cc(-c4cnn(CCN5CCOCC5)c4)sc23)CC1 [P-0624, N-[(4-fluorophenyl)methyl]-4-[6-[1-(2-morpholinoethyl)pyrazol-4-yl]thieno[3,2-d]pyrimidin-4-yl]piperazine-1-carboxamide] | < 10 µM |
| Cc1ccc(S(=O)(=O)Nc2ccc(-c3cc4ncnc(N5CCN(C(=O)Nc6ccccc6)CC5)c4s3)cc2)cc1 [P-0625, N-phenyl-4-[6-[4-(p-tolylsulfonylamino)phenyl]thieno[3,2-d]pyrimidin-4-yl]piperazine-1-carboxamide] | < 10 µM |
| Cn1cc(-c2cc3ncnc(N4CCN(C(=O)NCc5ccccc5)CC4)c3s2)cn1 [P-0626, N-benzyl-4-[6-(1-methylpyrazol-4-yl)thieno[3,2-d]pyrimidin-4-yl]piperazine-1-carboxamide] | < 10 µM |
| Cn1cc(-c2cc3ncnc(N4CCN(C(=O)Nc5ccccc5)CC4)c3s2)cn1 [P-0627, 4-[6-(1-methylpyrazol-4-yl)thieno[3,2-d]pyrimidin-4-yl]-N-phenyl-piperazine-1-carboxamide] | < 10 µM |
| Cc1ccc(S(=O)(=O)Nc2ccc(-c3ncnc4cc(-c5cnn(C)c5)sc34)cc2)cc1 [P-0628, 4-methyl-N-[4-[6-(1-methylpyrazol-4-yl)thieno[3,2-d]pyrimidin-4-yl]phenyl]benzenesulfonamide] | < 10 µM |
| O=C(NCc1ccccc1)N1CCN(c2ncnc3cc(Br)sc23)CC1 [P-0629, N-benzyl-4-(6-bromothieno[3,2-d]pyrimidin-4-yl)piperazine-1-carboxamide] | < 10 µM |
| CCS(=O)(=O)Nc1ccc(-c2ncnc3cc(-c4ccc(F)cc4)sc23)cc1 [P-0630, N-[4-[6-(4-fluorophenyl)thieno[3,2-d]pyrimidin-4-yl]phenyl]ethanesulfonamide] | < 10 µM |
